# Source: PubChem BioAssay AID624297 (National Center for Advancing Translational Sciences (NCATS), 2012)
# Screen size: about 340,000 compounds; about 6,200 (1.8%) were called active. The shares of active, inactive and inconclusive entries below differ from those in the screen. Calls come from the whole dose curve; as a rule, active = well fitted activation curve with a large enough effect; inconclusive = small, poorly fitted or top-dose-only effect; inactive = no such curve, though single readings can be large or run the other way. Potencies of inconclusive entries are doubtful fits and often do not repeat.
# Assay: A quantitative high throughput screen for small molecules that induce DNA re-replication in SW480 colon adenocarcinoma cells. For re-replication activation: % of control where 0% means no effect. Note: nearly all actives have a fitted effect of over 55% in size.
# Conditions: Hoechst DNA content imaging, 48 h; re-replication activation: at 46.1 µM (top of the series) unless noted
# Source text: H Molecular Libraries Probe Production Network [MLPCN] NIH Chemical Genomics Center [NCGC] MLPCN Grant: Fast Track K99 CA136555 Assay Provider: Melvin DePamphilis, NICHD, NIH Assay Overview Eukaryotic cells normally restrict genome duplication to once per cell division. When this process is aberrant, DNA re-replication occurs when cells reinitiate DNA replication before the first round of replication is complete. DNA re-replication induces the DNA damage response, arrests cell proliferation, and triggers apoptosis. The cell cycle components cyclin A, Cdt-1, Cdc6 and geminin are critical regulators of this process and their misregulation results in DNA re-replication in normal and cancer cells. To identify compounds that induce re-replication in normal cells, an image-based assay was used to measure DNA content of nuclei, as detected by the fluorescent DNA binding dye, Hoechst. Cell nuclei were imaged by a fluorescence scanning plate imager and compounds that induce DNA re-replication were identified by the increase of nuclei with elevated fluorescence intensity
# For screening, 250 cells in 5 uL/well were dispensed into black clear 1536-well plates (Aurora) using a solenoid-based dispenser. Following transfer of 23 nL compound or DMSO vehicle by a pin tool, the plates were incubated 48 hr at 37 C and 5% CO2. After addition of 1 uL/well Hoescht stain, the plates were incubated 40 min at 37 C, 5% CO2 and total intensity of fluorescent objects (nuclei) were enumerated by an Acumen Explorer Ex3 (TTP LabTech) fluorescence scanning plate imager (405 nm excitation, 500-530 nm emission). Keywords: NIH Roadmap, MLPCN, MLI, MLSMR, qHTS, NCGC, DNA replication, cancer
# Potency is the fitted concentration of half-maximal effect.
Structure (SMILES),Potency,re-replication activation
CO[C@]12C(COC(N)=O)C3=C(C(=O)C(C)=C(N)C3=O)N1CC1NC12 (some centres not stated),"inconclusive: 0.0944 µM [activator, full curve]",
CSC1=NCCN1C(=O)c1c(-c2c(F)cccc2Cl)noc1C,,inactive: -120%
O=C(NC1CCN(S(=O)(=O)c2cccc(F)c2)CC1)c1cccc(F)c1,"inconclusive: 29.1 µM [activator, single point]",
COC(=O)Cc1[nH]c(=S)[nH]c1C(=O)OC,"inconclusive: 16.4 µM [activator, single point]",
CC1CCN(CCCCOc2ccccc2-c2ccccc2)CC1,"inconclusive: 29.1 µM [activator, single point]",
NCCNc1ccc(C(=O)N2c3ccccc3Sc3ccccc32)cc1[N+](=O)[O-],"inconclusive: 32.6 µM [activator, partial curve, poor fit]",
O=C(Nc1ccc2c(c1)CCC2)Nc1ccc2c(c1)OCO2,,inactive: 4.67%
CCOC(=O)c1c(C)c(C(=O)NCCCN2CCCC2=O)c(C)n1CC,,inactive: -8.01%
COc1ccc(/C=C/C(=O)C23CC4CC(CC(C4)C2)C3)cc1CN1CCOCC1,"inconclusive: 6.51 µM [activator, partial curve]",
Cn1cc(Cl)c(C(=O)OCC(=O)Nc2cccc(Cl)c2)n1,,inactive: -9.79%
Cc1noc(C)c1C(=O)Nc1sccc1C(N)=O,"inconclusive: 7.31 µM [activator, partial curve, poor fit]",
O=C(Nc1nccs1)c1ccc(COc2c(F)c(F)cc(F)c2F)cc1,"inconclusive: 4.61 µM [activator, full curve, poor fit]",
O=C(CCCCCNC(=O)c1ccccc1)N/N=C/c1ccccc1O,active: 5.8 µM,
COc1ccc(-c2cc3nc(C)cc(-c4ccc(OC)cc4)n3n2)cc1,"inconclusive: 23.1 µM [activator, single point]",
O=C(c1ccc(Cl)cc1)C1CCCN(Cc2ccc(Oc3ncccn3)cc2)C1 (configuration not stated),"inconclusive: 29.1 µM [activator, single point]",
CCOc1ccc(S(=O)(=O)NCc2ccccn2)cc1,,inactive: -8.28%
CCC1(c2ccc(Cl)cc2)NC(=S)N(c2ccccc2)N1 (configuration not stated),,inactive: -2.32%
CC(C)NC(=O)C(c1ccc(F)cc1)N(Cc1ccco1)C(=O)CCC(=O)Nc1ccccn1 (configuration not stated),,inactive: -12.6%
CCN(C(=O)c1ccco1)c1nc(CC(=O)Nc2ccc(Cl)cc2)cs1,active: 11.6 µM,
COc1ccc(Br)cc1C(=O)Nc1ccccc1N1CCN(C(=O)c2ccccc2)CC1,,inactive: 9.12%
COc1ccc(/C=C2\OC(=O)c3c(OC)cccc32)cc1OC,"inconclusive: 6.51 µM [activator, partial curve, poor fit]",
Cn1c(-c2c(N)n(CCc3ccccc3)c3nc4ccccc4nc23)nc2ccccc21,active: 8.2 µM,
CS(=O)(=O)N(CC(=O)N1CCN(c2ccc(F)cc2)CC1)C1CCCCC1,"inconclusive: 0.103 µM [activator, full curve, poor fit]",
Cc1ccc(O)c(C(=O)c2cnc3c(c2)COc2ccc(C)cc2-3)c1,"inconclusive: 29.1 µM [activator, single point]",

# Look-ups from the list:
# CC1CCN(CCCCOc2ccccc2-c2ccccc2)CC1 | Potency: inconclusive: 29.1 µM [activator, single point]
# Cc1noc(C)c1C(=O)Nc1sccc1C(N)=O | Potency: inconclusive: 7.31 µM [activator, partial curve, poor fit]

# (listing goes on)

Structure (SMILES),Potency,re-replication activation
COc1ccc(-c2nnn(CC(=O)NC3CCCc4ccccc43)n2)cc1OC (configuration not stated),"inconclusive: 32.6 µM [activator, partial curve, poor fit]",
Cc1ccc(NC(=S)NCc2ccc3[nH]c4c(c3c2)CCCC4)cc1,"inconclusive: 0.0052 µM [activator, full curve, poor fit]",
c1ccc(N2CCN(c3nc(-c4cccs4)nc4ccccc34)CC2)cc1,,inactive: -1.27%
CCc1nc2cccnc2n1-c1ccc(CC(=O)O)cc1,,inactive: -5.43%
CCCCc1ccc(NC(=O)CSc2nc(=O)n(CCCN3CCOCC3)c3c2CCC3)cc1,,inactive: 12.8%
Cc1ccc2occ(/C=N/NC(=O)c3ccc(O)cc3)c(=O)c2c1,,inactive: -14.4%
CCCCCOc1ccc(C(=O)C(c2ccccc2)N2CCOCC2)cc1 (configuration not stated),"inconclusive: 29.1 µM [activator, single point]",
C/[N+]([O-])=C/c1c(OCc2ccccc2)ccc2ccccc12,,inconclusive: 28.7% [activator]
CSc1cccc(NC(=S)N(CCN(C)C)C(C)c2ccccn2)c1 (configuration not stated),"inconclusive: 18.4 µM [activator, single point]",
CCCNc1c(NS(=O)(=O)c2ccc(C(C)(C)C)cc2)c(=O)oc2ccccc12,,inactive: -16.7%
Cc1cccc(OS(=O)(=O)NC(=O)OCC2CCCN3CCCCC23)c1 (configuration not stated),,inactive: -6.01%
COc1ccc(NC(=O)CN(C)C(=O)Cn2cnc3c2c(=O)n(C)c(=O)n3C)cc1,"inconclusive: 29.1 µM [activator, single point]",
COc1ccc(CN2CCC(Cc3ccccc3)CC2)c(C)c1C,,inactive: 19.8%
Cc1nc2ccccn2c1CN(C)C(=O)C1CCC(=O)N(Cc2cccc(F)c2)C1 (configuration not stated),"inconclusive: 1.46 µM [activator, full curve]",
C#Cc1cccc(NC(=O)CSc2nnc(-c3ccc(C(F)(F)F)cn3)o2)c1,"inconclusive: 3.66 µM [activator, full curve, poor fit]",
CSc1nc(Oc2ccc(F)cc2)c2ccccc2n1,,inactive: -0.114%
CCCn1c(SCC(=O)N2c3ccccc3Sc3ccccc32)nc2ccccc21,"inconclusive: 25.9 µM [activator, partial curve, poor fit]",
O=C1NC[C@@H](Cc2ccc(O)cc2)N(CCc2cccc3ccccc23)C1=O,,inactive: 15.6% [at 9.22 µM]
c1ccc(CNc2ncnc3ccccc23)cc1,inactive,
N=c1n(Cc2ccccc2)c2ccccc2n1CC(O)COc1ccccc1 (configuration not stated),"inconclusive: 20.6 µM [activator, single point]",
COc1ccc(C2CC(=O)Oc3cc(C)cc(C)c32)cc1 (configuration not stated),"inconclusive: 0.731 µM [activator, partial curve, poor fit]",
Cc1nc(SCC(=O)NC2(C#N)CCCC2)n(CC(C)C)c1C,"inconclusive: 7.31 µM [activator, single point]",
c1ccc2nc3c(ccc4ccccc43)cc2c1,,inactive: 8.04%
COc1cccc(C(=O)Nc2ccc(C3CC3(Cl)Cl)cc2)c1 (configuration not stated),"inconclusive: 32.6 µM [activator, partial curve, poor fit]",

# 3 successive entries from above, quoted:
Structure (SMILES),Potency,re-replication activation
N=c1n(Cc2ccccc2)c2ccccc2n1CC(O)COc1ccccc1 (configuration not stated),"inconclusive: 20.6 µM [activator, single point]",
COc1ccc(C2CC(=O)Oc3cc(C)cc(C)c32)cc1 (configuration not stated),"inconclusive: 0.731 µM [activator, partial curve, poor fit]",
Cc1nc(SCC(=O)NC2(C#N)CCCC2)n(CC(C)C)c1C,"inconclusive: 7.31 µM [activator, single point]",

# (next part)

Structure (SMILES),Potency,re-replication activation
COc1ccccc1NC(=O)Cn1nnc(C(=O)NCc2cccs2)c1N,,inconclusive: -8.24% [activator]
Cc1nn(-c2ccccn2)c2c1C(=O)CC(C)(C)C2N=[N+]=[N-] (configuration not stated),,inactive: 40.5%
CC(=O)N1c2ccc(S(=O)(=O)N3CCC(C(=O)N4CCCC(C)C4)CC3)cc2CC1C (configuration not stated),"inconclusive: 23.1 µM [activator, partial curve, poor fit]",
CCN(CC)CCn1c(=N)n(CC(O)COc2cccc(C)c2)c2ccccc21 (configuration not stated),"inconclusive: 16.4 µM [activator, single point]",
CCC(=O)N1CCc2cc(S(=O)(=O)NCCCN(CC)Cc3ccccc3)ccc21,"inconclusive: 11.6 µM [activator, partial curve, poor fit]",
Cc1ccc(S(=O)(=O)N2CCN(C(=O)CN3C(=O)c4ccccc4C3=O)CC2)c(C)c1,,inactive: -0.825%
COc1ccc(-c2oc3ccccc3c2C#Cc2cncn2C)cc1,"inconclusive: 18.4 µM [activator, single point]",
CCOC(=O)c1ccc2ncc(C(=O)OCC)c(Nc3ccc(N4CCOCC4)cc3)c2c1,"inconclusive: 2.91 µM [activator, single point]",
Nc1ccc2c(c1)C(=Cc1cccnc1)c1ccccc1-2,,inactive: 2.27%
COc1ccc(CCNC(=O)c2ccccc2NC(=O)C2=C(C)OCCS2)cc1OC,"inconclusive: 1.3 µM [activator, full curve, poor fit]",
CCOc1ccc2nc(NC(=O)C34CC5CC(CC(NC(C)=O)(C5)C3)C4)sc2c1,"inconclusive: 25.9 µM [activator, partial curve, poor fit]",
COC1=C(Nc2ccccc2)C(=O)c2ccccc2C1=O,"inconclusive: 23.1 µM [activator, single point]",
Cc1ccc(/C=N/NC(=O)C(C)Oc2ccccc2[N+](=O)[O-])s1 (configuration not stated),"inconclusive: 13 µM [activator, partial curve, poor fit]",
COc1cccc(CNC(C)C(=O)Nc2ccc(S(=O)(=O)N3CCCC3)cc2)c1 (configuration not stated),,inactive: -23.3%
COCCN(C(=O)COC(=O)CNC(=O)c1ccc(C)cc1)c1c(N)n(Cc2ccccc2)c(=O)[nH]c1=O,,inactive: -3.58%
Cc1ccc(S(=O)(=O)N2CCC(=O)N(C(COC(=O)Nc3ccccc3)Cc3ccccc3)CC2)cc1 (configuration not stated),,inactive: 4.07%
COCCNC(=O)C(=O)Nc1cc2c3c(c1)CCC(=O)N3CCC2,"inconclusive: 23.1 µM [activator, single point]",
C/C(=N\NC(=O)c1ccc(CSc2nncn2C)cc1)c1ccc(C#N)cc1,,inactive: -1.11%
CC(C)Nc1nc(Cl)nc(N(C#N)CN2C(=O)c3ccccc3C2=O)n1,"inconclusive: 29.1 µM [activator, single point]",
Cc1ccc(Nc2nc(N)nc(CSc3nc4ccccc4s3)n2)cc1,"inconclusive: 29.1 µM [activator, single point]",
CCOC(=O)c1ccc2c(c1)nc(COc1ccc3ccccc3c1)n2CC,"inconclusive: 29.1 µM [activator, single point]",
COc1ccc(CNc2ccc(C)c(C)c2)cc1,,inactive: -4.23%
CCOc1cc2nc3c4ccccc4n(C)c3nc2cc1OCC,"inconclusive: 18.4 µM [activator, single point]",
Cc1cc(C)c(C)c(S(=O)(=O)NCC(=O)NCc2ccco2)c1C,"inconclusive: 29.1 µM [activator, single point]",
